The values below come from the supplement of paper PMC8866396.

± gives the standard deviation of the averaged measurements. The list shows a part of the results. Most values lie within the scatter of the assay; repeated measurements hardly agree.

The subject of the test is IL-6-GFP PC-9. The test can be described thus: IL-6-GFP fluorescence relative to DMSO control (fraction of control); higher = more IL-6-GFP expression. Particulars: compound concentration: 10 uM; treatment time: 48 h. Here is the method: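 IL-6-GFP-overexpressing PC-9 and PC-9GR EGFR-mutant lung cancer cells (3000 cells/well, 96-well) were treated for 48 h with each compound of the Selleck L2000 library at 10 uM. IL-6-GFP fluorescence was read on a high-content screening system, and viability by CCK-8 absorbance on a parallel plate set. Each value was normalised as compound well / DMSO control well; two independent replicates.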
`O=C(O)CCc1nc(-c2ccccc2)c(-c2ccccc2)o1` [Oxaprozin]: the IL-6-GFP fluorescence turned out to be 0.837 ± 0.058.
With `COc1cc2c3cc1Oc1c(OC)c(OC)cc4c1C(Cc1ccc(O)c(c1)Oc1ccc(cc1)CC3N(C)CC2)N(C)CC4.Cl.Cl` (stereo not given) [Berbamine (dihydrochloride)], the IL-6-GFP fluorescence was found to be 0.821 ± 0.24.
Turning to `CC(C)c1nc(CN(C)C(=O)NC(CCN2CCOCC2)C(=O)NC(CCC(Cc2ccccc2)NC(=O)OCc2cncs2)Cc2ccccc2)cs1` (stereo not given) [Cobicistat (GS-9350)], the IL-6-GFP fluorescence came out at 0.854 ± 0.14.
With `O=C(OCC1OC(OC(=O)c2cc(O)c(O)c(OC(=O)c3cc(O)c(O)c(O)c3)c2)C(OC(=O)c2cc(O)c(O)c(OC(=O)c3cc(O)c(O)c(O)c3)c2)C(OC(=O)c2cc(O)c(O)c(OC(=O)c3cc(O)c(O)c(O)c3)c2)C1OC(=O)c1cc(O)c(O)c(OC(=O)c2cc(O)c(O)c(O)c2)c1)c1cc(O)c(O)c(OC(=O)c2cc(O)c(O)c(O)c2)c1` (stereo not given) [Tannic acid], the IL-6-GFP fluorescence was found to be 0.848 ± 0.18.
For the molecule `CC(C)=CCCC(C)(OC1OC(CO)C(O)C(O)C1O)C1CCC2(C)C1C(O)CC1C3(C)CCC(O)C(C)(C)C3C(OC3OC(CO)C(O)C(O)C3O)CC12C` (stereo not given) [Ginsenoside Rg1], the IL-6-GFP fluorescence was 0.902 ± 0.051.
With `Clc1ccc(C(c2ccccc2Cl)C(Cl)Cl)cc1` (stereo not given) [Mitotane], the IL-6-GFP fluorescence was 0.88 ± 0.063.
The molecule `COc1cc2c(cc1OC)C1CC(OC(=O)C(N)C(C)C)C(CC(C)C)CN1CC2.Cc1ccc(S(=O)(=O)O)cc1.Cc1ccc(S(=O)(=O)O)cc1` (stereo not given) [Valbenazine tosylate] returned an IL-6-GFP fluorescence of 2.009 ± 0.018.
In turn, `COc1cc2nccc(Oc3ccc(NC(=O)NC4CC4)c(Cl)c3)c2cc1C(N)=O.CS(=O)(=O)O` [lenvatinib Mesylate] registered an IL-6-GFP fluorescence of 0.885 ± 0.021.
For `O.O.O=C([O-])CCNC(=O)c1ccc(N=Nc2ccc(O)c(C(=O)[O-])c2)cc1.[Na+].[Na+]` [Balsalazide disodium], the IL-6-GFP fluorescence came out at 0.735 ± 0.28.
`CC(C(=O)[O-])c1cccc(Oc2ccccc2)c1.CC(C(=O)[O-])c1cccc(Oc2ccccc2)c1.[Ca+2]` (stereo not given) [Fenoprofen Calcium] gave an IL-6-GFP fluorescence of 0.877 ± 0.074.
On to `Cn1c(=O)cc(N2CCCC(N)C2)n(Cc2ccccc2C#N)c1=O` (stereo not given) [Alogliptin(SYK-322)benzoate], for which the IL-6-GFP fluorescence was 0.721 ± 0.31.
As for `COc1c(OC2OC(CO)C(O)C(O)C2O)cc2c(c1OC)-c1ccc(SC)c(=O)cc1C(NC(C)=O)CC2` (stereo not given) [Thiocolchicoside], the IL-6-GFP fluorescence was 0.356 ± 0.011.
Molecule `CC(NCc1ccc(OCc2cccc(F)c2)cc1)C(N)=O.CS(=O)(=O)O` (stereo not given) [Safinamide Mesylate] showed an IL-6-GFP fluorescence of 0.904 ± 0.07.
Take `O=C([O-])Cc1ccccc1Nc1c(Cl)cccc1Cl.[K+]` [Diclofenac Potassium]: the IL-6-GFP fluorescence is 0.717 ± 0.19.
`CC(C)(C)c1nc(-c2cccc(NS(=O)(=O)c3c(F)cccc3F)c2F)c(-c2ccnc(N)n2)s1.CS(=O)(=O)O` [Dabrafenib Mesylate] registered an IL-6-GFP fluorescence of 0.924 ± 0.11.
`O=C(Nc1ccc(O)cc1)c1ccccc1O` [Osalmid]: the IL-6-GFP fluorescence was determined as 0.474 ± 0.087.
`COc1c(-c2ccc3cc(NS(C)(=O)=O)ccc3c2)cc(-n2ccc(=O)[nH]c2=O)cc1C(C)(C)C` [Dasabuvir(ABT-333)] yielded an IL-6-GFP fluorescence of 0.857 ± 0.072.
The molecule `CC(=O)Nc1ccc(OC(=O)c2ccccc2OC(C)=O)cc1` [Benorylate] showed an IL-6-GFP fluorescence of 0.803 ± 0.016.
In turn, `C=CC1CC1(NC(=O)C1CC(Oc2ncc(OC)c3ccc(Cl)cc23)CN1C(=O)C(NC(=O)OC(C)(C)C)C(C)(C)C)C(=O)NS(=O)(=O)C1CC1` (stereo not given) [Asunaprevir] came in with an IL-6-GFP fluorescence of 0.9597 ± 0.00098.
Turning to `CN1CCC(=C2c3ccccc3CCc3cccnc32)CC1.O=C(O)/C=C\C(=O)O.O=C(O)/C=C\C(=O)O` [Azatadine dimaleate], the IL-6-GFP fluorescence was determined as 0.971 ± 0.06.
As for `CCOC(=O)c1ccc(C#Cc2ccc3c(c2)C(C)(C)CCS3)nc1` [Tazarotene], the figure is 2.08 ± 0.013; as for `O=C(O)COc1nn(Cc2ccccc2)c2ccccc12` [Bendazac], 0.853 ± 0.13; as for `CCCCC(=O)OC1(C(=O)CO)C(C)CC2C3CCC4=CC(=O)C=CC4(C)C3(F)C(O)CC21C` (stereo not given) [Betamethasone Valerate], 0.931 ± 0.14.
The molecule `CNC(=O)c1ccc(N2C(=S)N(c3cnc(C#N)c(C(F)(F)F)c3)C(=O)C23CCC3)cc1F` returned an IL-6-GFP fluorescence of 0.712 ± 0.1.
For the molecule `COc1cc2ncnc(Nc3ccc(F)c(Cl)c3)c2cc1NC(=O)/C=C/CN1CCCCC1`, the IL-6-GFP fluorescence came out at 0.927 ± 0.02.
